Laboratory results as given in the supplement of paper PMC12823440, “Inhibitors supercharge kinase turnover through native proteolytic circuits” (Nature, 2025).
Structures can show the parent of a compound that is named as a salt. The list shows a part of the results. The calls rarely recur for the same compound in another form.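 Kinases were expressed as nanoluciferase fusions in K562 cells and luminescence was read every 4 h between 2 and 18 h as percent of control, DMSO set to 100% and a positive control to 0%. A time point counts as decreased when the signal drops significantly (2 sigma). The hit call is the authors' own, does not follow from the count of time points alone, and its rule is not shown.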

The chains behind the UniProt entries cited, without tags or fusion partners. Where a name states a change or a piece, a line headed by the entry shows the natural chain unless it says otherwise.
UniProt Q16288, whole entry, looked up: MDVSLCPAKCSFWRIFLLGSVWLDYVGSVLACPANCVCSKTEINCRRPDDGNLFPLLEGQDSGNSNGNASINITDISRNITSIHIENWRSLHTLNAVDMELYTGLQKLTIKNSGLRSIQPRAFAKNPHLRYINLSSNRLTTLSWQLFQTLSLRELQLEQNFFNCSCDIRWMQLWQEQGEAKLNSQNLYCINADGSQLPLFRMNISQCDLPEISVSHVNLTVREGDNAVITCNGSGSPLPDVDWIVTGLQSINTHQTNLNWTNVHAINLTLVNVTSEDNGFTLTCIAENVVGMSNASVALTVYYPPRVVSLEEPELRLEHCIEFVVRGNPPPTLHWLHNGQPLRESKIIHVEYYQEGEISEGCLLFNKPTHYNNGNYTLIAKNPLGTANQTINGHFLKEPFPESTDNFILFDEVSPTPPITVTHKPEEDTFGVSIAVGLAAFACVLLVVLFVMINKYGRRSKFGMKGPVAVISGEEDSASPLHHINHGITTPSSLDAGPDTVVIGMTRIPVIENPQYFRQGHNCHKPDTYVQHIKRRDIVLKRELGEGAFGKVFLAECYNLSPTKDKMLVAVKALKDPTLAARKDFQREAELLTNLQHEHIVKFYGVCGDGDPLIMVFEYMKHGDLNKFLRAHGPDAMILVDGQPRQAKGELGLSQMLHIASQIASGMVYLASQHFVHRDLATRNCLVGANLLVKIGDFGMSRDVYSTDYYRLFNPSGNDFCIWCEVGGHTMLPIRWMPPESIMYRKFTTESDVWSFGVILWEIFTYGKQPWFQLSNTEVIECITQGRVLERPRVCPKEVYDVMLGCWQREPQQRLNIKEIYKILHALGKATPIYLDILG
UniProt O96013: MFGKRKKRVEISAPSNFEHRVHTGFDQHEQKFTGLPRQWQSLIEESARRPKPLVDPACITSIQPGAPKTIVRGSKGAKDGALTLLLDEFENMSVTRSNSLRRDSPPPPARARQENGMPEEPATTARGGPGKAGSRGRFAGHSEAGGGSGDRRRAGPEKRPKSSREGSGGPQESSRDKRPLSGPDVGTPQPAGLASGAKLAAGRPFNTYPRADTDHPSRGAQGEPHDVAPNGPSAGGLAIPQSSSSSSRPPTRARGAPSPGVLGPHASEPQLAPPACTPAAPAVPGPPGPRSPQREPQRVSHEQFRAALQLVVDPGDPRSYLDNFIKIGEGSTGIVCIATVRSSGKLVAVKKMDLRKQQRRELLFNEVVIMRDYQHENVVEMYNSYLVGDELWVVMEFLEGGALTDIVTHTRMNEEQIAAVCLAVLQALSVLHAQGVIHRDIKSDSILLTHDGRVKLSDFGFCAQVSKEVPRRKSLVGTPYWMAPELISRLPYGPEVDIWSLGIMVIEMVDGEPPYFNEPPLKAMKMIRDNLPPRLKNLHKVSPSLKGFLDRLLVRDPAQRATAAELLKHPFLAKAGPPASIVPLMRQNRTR
UniProt Q15118, whole entry, looked up: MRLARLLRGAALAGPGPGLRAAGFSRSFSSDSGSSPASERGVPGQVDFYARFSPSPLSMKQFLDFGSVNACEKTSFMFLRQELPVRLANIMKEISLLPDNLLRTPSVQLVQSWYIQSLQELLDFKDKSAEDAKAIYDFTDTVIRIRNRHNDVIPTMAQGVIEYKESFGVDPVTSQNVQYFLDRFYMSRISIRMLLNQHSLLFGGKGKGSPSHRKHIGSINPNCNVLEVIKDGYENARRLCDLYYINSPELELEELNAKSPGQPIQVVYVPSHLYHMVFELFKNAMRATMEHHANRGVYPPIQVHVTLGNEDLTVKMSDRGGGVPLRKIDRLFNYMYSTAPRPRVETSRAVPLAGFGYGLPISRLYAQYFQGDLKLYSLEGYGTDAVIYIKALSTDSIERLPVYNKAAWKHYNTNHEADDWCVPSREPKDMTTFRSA
UniProt O15530: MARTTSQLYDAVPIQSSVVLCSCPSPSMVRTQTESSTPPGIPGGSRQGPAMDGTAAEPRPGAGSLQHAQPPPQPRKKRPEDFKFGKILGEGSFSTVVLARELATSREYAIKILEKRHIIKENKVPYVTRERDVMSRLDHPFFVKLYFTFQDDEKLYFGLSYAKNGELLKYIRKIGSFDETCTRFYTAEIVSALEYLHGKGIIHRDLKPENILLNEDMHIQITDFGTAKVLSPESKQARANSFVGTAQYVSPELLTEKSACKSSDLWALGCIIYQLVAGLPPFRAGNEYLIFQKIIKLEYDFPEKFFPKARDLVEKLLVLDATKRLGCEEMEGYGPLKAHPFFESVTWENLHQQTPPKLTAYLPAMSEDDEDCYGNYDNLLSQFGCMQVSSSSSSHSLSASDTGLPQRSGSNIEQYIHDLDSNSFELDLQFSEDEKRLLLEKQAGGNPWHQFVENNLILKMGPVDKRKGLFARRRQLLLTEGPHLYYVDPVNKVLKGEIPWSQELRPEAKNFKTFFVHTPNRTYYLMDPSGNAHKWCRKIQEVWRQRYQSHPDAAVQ
UniProt P42356, whole entry, looked up: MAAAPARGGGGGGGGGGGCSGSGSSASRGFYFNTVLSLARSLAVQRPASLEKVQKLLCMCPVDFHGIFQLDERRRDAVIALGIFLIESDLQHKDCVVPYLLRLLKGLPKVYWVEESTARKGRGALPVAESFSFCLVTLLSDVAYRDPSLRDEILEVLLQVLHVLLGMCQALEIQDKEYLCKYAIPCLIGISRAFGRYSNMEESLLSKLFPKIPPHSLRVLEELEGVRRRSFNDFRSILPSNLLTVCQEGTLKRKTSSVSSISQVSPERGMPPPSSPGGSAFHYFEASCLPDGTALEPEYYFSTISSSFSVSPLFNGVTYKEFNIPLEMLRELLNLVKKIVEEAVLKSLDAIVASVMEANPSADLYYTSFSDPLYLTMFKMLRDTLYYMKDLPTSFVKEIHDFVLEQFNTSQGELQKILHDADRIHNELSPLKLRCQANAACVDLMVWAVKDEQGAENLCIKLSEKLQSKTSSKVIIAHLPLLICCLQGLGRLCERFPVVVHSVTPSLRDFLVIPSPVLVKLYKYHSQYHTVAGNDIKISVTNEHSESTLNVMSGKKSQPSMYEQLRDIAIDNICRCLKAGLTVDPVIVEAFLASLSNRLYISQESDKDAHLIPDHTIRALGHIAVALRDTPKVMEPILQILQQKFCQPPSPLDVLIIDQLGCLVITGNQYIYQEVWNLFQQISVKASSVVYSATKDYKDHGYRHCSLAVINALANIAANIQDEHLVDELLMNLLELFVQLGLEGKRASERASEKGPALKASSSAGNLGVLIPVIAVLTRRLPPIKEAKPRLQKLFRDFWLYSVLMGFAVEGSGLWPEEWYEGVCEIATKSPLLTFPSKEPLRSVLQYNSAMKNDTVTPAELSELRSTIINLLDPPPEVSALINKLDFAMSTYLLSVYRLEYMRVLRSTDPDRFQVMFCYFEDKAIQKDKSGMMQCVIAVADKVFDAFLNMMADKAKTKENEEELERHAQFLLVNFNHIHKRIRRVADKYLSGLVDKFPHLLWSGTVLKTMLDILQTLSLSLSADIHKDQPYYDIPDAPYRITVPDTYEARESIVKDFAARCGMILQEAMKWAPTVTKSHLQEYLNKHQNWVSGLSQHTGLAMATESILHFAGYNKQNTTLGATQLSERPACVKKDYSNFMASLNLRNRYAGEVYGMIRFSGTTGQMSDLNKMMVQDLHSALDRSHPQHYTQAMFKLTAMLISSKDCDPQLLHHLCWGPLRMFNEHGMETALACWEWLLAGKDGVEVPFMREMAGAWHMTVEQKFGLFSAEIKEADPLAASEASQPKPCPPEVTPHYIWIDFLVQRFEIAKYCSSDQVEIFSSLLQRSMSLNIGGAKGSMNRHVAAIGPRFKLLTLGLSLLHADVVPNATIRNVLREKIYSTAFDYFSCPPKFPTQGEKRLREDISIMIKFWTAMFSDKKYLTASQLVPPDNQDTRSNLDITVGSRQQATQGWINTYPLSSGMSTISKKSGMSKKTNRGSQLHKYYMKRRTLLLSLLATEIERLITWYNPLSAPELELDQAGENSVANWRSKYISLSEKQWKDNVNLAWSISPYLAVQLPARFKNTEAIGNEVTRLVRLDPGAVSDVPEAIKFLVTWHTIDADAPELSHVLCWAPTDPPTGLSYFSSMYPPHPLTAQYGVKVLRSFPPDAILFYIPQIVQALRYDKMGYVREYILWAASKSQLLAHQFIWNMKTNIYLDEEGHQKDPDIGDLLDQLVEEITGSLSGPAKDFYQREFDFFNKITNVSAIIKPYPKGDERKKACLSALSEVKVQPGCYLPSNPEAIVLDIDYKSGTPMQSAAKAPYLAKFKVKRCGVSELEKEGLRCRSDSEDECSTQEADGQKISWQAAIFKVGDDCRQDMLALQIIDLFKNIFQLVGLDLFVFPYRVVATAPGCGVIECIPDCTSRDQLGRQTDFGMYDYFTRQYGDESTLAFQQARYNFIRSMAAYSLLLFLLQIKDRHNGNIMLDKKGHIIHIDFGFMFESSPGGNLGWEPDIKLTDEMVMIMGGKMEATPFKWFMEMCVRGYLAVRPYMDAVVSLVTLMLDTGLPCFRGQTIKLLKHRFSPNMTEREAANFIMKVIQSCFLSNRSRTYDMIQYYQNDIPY
UniProt Q9UBF8: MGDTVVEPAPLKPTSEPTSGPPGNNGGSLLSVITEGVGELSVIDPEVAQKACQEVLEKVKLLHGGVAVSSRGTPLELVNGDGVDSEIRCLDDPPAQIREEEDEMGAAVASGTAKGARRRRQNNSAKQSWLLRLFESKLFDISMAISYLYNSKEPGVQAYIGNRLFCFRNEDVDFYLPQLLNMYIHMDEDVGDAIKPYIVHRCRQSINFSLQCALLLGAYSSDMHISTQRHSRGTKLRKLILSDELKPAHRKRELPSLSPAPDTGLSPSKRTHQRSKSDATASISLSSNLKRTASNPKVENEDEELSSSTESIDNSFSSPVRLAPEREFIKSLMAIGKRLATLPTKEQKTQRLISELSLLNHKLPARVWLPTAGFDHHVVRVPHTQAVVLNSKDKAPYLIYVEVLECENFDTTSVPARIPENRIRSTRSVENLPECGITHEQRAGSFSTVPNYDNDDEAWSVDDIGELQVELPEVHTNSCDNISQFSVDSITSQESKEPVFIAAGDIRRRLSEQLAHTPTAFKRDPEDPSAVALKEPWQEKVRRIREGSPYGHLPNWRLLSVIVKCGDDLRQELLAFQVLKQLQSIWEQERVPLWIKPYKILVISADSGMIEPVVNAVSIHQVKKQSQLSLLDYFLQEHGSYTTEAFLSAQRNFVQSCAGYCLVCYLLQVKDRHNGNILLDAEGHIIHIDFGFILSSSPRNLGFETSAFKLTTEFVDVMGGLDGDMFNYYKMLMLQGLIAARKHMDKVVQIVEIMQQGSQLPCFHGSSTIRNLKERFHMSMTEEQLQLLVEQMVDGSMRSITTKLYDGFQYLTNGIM
UniProt P53350, whole entry: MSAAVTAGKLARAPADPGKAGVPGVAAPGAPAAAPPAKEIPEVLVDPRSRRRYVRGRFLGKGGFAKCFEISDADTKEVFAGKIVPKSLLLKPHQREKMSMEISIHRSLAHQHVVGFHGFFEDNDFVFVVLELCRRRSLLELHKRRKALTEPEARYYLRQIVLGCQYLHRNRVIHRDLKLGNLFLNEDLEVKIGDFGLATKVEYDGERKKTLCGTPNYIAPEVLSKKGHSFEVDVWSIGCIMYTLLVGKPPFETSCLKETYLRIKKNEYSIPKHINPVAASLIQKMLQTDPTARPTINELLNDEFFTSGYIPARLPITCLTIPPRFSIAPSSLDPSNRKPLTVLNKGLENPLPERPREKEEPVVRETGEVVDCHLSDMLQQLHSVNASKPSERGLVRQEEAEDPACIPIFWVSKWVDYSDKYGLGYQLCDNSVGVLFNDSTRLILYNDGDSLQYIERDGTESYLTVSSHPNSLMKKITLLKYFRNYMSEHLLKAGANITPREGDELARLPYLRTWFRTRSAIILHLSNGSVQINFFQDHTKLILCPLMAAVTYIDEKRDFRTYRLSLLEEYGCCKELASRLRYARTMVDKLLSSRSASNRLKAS
UniProt Q13131: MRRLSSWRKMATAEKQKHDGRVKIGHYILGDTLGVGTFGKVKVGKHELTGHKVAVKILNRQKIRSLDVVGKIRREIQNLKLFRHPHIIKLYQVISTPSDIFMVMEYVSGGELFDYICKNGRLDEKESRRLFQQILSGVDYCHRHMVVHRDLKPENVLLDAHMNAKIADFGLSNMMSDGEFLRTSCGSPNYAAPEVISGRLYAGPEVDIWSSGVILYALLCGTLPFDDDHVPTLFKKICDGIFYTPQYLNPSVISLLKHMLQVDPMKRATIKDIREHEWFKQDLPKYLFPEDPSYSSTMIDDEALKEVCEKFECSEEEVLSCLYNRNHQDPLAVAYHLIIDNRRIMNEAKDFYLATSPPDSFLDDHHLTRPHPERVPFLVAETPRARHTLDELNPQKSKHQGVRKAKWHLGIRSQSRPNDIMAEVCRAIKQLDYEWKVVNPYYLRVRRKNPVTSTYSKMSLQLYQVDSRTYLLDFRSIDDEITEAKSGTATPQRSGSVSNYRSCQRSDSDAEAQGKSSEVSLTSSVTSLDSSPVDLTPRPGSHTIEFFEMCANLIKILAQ

How the values were obtained:
Experiment in all cases: number of time points (of 5) at which kinase-Nluc abundance scored as decreased, DMSO-normalised (count); higher = more persistent destabilization
Conditions in all cases: K562; 2-18 h
[1] = molecular target: NTRK3 (UniProt Q16288)
[2] = molecular target: PAK4 (UniProt O96013)
[3] = molecular target: PBK (UniProt Q96KB5)
[4] = molecular target: PDGFRB (UniProt P09619)
[5] = molecular target: PDK1 (UniProt Q15118)
[6] = molecular target: PDPK1 (UniProt O15530)
[7] = molecular target: PIK4CA (UniProt P42356)
[8] = molecular target: PIK4CB (UniProt Q9UBF8)
[9] = molecular target: PLK1 (UniProt P53350)
[10] = molecular target: PRKAA1 (UniProt Q13131)

SMILES | number of time points [1] | number of time points [2] | number of time points [3] | number of time points [4] | number of time points [5] | number of time points [6] | number of time points [7] | number of time points [8] | number of time points [9] | number of time points [10]
COc1c(Cl)cc2c([nH]c3cnccc32)c1NC(=O)c1cccnc1C (10 µM) | 0 | 0 | 0 | 0 | 0 | 0 | 0 | 0 | 0 | 0
CN1CCN(c2ccc(Nc3cc(-c4cccc(-n5ccc6cc(C7CC7)cc(F)c6c5=O)c4CO)cn(C)c3=O)nc2)CC1 (2.5 µM) | 0 | 0 | 0 | 0 | 0 | 0 | 0 | 0 | 0 | 0
Cc1ccc(NC(=O)Nc2nnc(Sc3ncnc4cc(OCCCN5CCOCC5)ccc34)s2)cc1 (10 µM) | 0 | 0 | 0 | 0 | 0 | 0 | 2 | 0 | 0 | 0
O=c1cc(N2CCOCC2)oc2c(-c3ccccc3)cccc12 (10 µM) | 0 | 0 | 0 | 0 | 0 | 0 | 0 | 0 | 0 | 0
Cc1cc(CS(=O)(=O)c2ccccc2)cc(OCc2ccc(CN3CCC[C@@H]3CO)cc2)c1 [PF-543 (Citrate)] (10 µM) | 0 | 0 | 0 | 0 | 0 | 0 | 0 | 0 | 0 | 0
O=C1c2ccccc2-c2n[nH]c3cccc1c23 (10 µM) | 0 | 0 | 0 | 0 | 0 | 0 | 0 | 0 | 0 | 0
O=C1Cc2c([nH]c3ccc(Br)cc23)-c2ncccc2N1 [1-Azakenpaullone] (10 µM) | 0 | 0 | 0 | 0 | 0 | 0 | 0 | 0 | 0 | 0
NC(=O)c1ccc2nc(-c3ccc(Oc4ccc(Cl)cc4)cc3)[nH]c2c1 (10 µM) | 0 | 0 | 0 | 0 | 0 | 0 | 0 | 0 | 0 | 0
O=C(O)CCNC(=O)c1ccc(/N=N/c2ccc(O)c(C(=O)O)c2)cc1 [Balsalazide] (10 µM) | 0 | 0 | 0 | 0 | 0 | 0 | 0 | 0 | 0 | 0
CCN1CCN(c2ccc(Nc3cc(N(C)C(=O)Nc4c(Cl)c(OC)cc(OC)c4Cl)ncn3)cc2)CC1 [Infigratinib] (10 µM) | 0 | 0 | 0 | 0 | 0 | 0 | 0 | 0 | 0 | 0
Cc1cc(F)c(C(=O)Nc2cccc(-c3nncn3C(C)C)n2)cc1-n1cnc(C2CC2)c1 [Selonsertib] (10 µM) | 0 | 0 | 0 | 0 | 0 | 0 | 0 | 0 | 0 | 0
CCCS(=O)(=O)Nc1ccc(F)c(C(=O)c2c[nH]c3ncc(Cl)cc23)c1F (10 µM) | 0 | 0 | 0 | 0 | 0 | 1 | 0 | 0 | 0 | 0
COc1cc2ncnc(Nc3cccc(Cl)c3F)c2cc1OC(=O)N1CCN(C)C[C@H]1C [Zorifertinib] (10 µM) | 0 | 0 | 0 | 0 | 0 | 0 | 0 | 0 | 0 | 0
CCN1C(=O)N(c2c(F)c(OC)cc(OC)c2F)Cc2cnc3[nH]c(CN4CCOCC4)cc3c21 [Pemigatinib] (10 µM) | 0 | 0 | 0 | 0 | 0 | 0 | 0 | 0 | 0 | 0
CCOc1ccn(-c2ccc(F)cc2)c(=O)c1C(=O)Nc1ccc(Oc2ccnc(N)c2Cl)c(F)c1 (10 µM) | 1 | 0 | 0 | 0 | 0 | 4 | 1 | 0 | 1 | 1
CC(=O)N1CCN(c2ccc(OCC3COC(Cn4ccnc4)(c4ccc(Cl)cc4Cl)O3)cc2)CC1 (stereo not given) [Ketoconazole] (2.5 µM) | 0 | 0 | 0 | 0 | 0 | 0 | 0 | 0 | 0 | 0
Cn1c(=O)c(Oc2ccc(F)cc2F)cc2cnc(NC3CCOCC3)nc21 [R1487 (Hydrochloride)] (10 µM) | 0 | 0 | 0 | 0 | 0 | 0 | 0 | 0 | 0 | 0
Cc1ccc2c(Nc3ccc(Cl)cc3)nccc2c1Nc1ncccc1-c1ncnc2nc[nH]c12 [Raf inhibitor 1] (2.5 µM) | 0 | 0 | 0 | 0 | 0 | 0 | 0 | 0 | 0 | 0
O=C(Nc1ccc(-c2ccnc(Nc3ccc(N4CCOCC4)cc3)n2)cc1)C1CCCN1 (stereo not given) (10 µM) | 0 | 0 | 0 | 0 | 0 | 0 | 0 | 0 | 0 | 0

Complete entries, looked up by structure. Values in the order: number of time points [1] | number of time points [2] | number of time points [3] | number of time points [4] | number of time points [5] | number of time points [6] | number of time points [7] | number of time points [8] | number of time points [9] | number of time points [10]
NC(=O)c1ccc2nc(-c3ccc(Oc4ccc(Cl)cc4)cc3)[nH]c2c1 (10 µM) in the list: 0 | 0 | 0 | 0 | 0 | 0 | 0 | 0 | 0 | 0
CCN1CCN(c2ccc(Nc3cc(N(C)C(=O)Nc4c(Cl)c(OC)cc(OC)c4Cl)ncn3)cc2)CC1 [Infigratinib] (10 µM) in the list: 0 | 0 | 0 | 0 | 0 | 0 | 0 | 0 | 0 | 0
